# Source: patent US20260209285A1, “SWEET-TASTING PROTEIN BRAZZEIN MUTANT HAVING HIGH SWEETNESS AND PREPARATION METHOD THEREFOR” (NANJING BESTZYME BIO-ENGINEERING CO., LTD., priority 2022, published 2026)
# Part of at least one peptide drawing is inferred or uncertain, most often the ends. Bridge positions count the residues as written; N and C are the ends. Ends that are not written are not given here.
# What was measured:
# [1] = tested on: sensory evaluation panel of 10 people; assay: Substituting of sugar in white peach sugar-free sparkling water, sensory evaluation panel; assay type: in vivo, human; conditions: 2.5 to 62.5 ppm, with erythritol; protein prepared by adding ROLpro; versus sparkling water available on the market
# [2] = tested on: healthy evaluators; assay: Determination of sweetness threshold by human sensory evaluation; assay type: in vivo; conditions: for Sweetness fold relative to 1% sucrose: =10000/(sample sweetness threshold); for increase in sweetness achieved by addition of the lipase leader peptide sequence ROLpro: protein prepared with ROLpro versus same protein without ROLpro; for Concentration (μg/mL) corresponding to threshold: sweetness threshold, protein diluted with mineral water (pH 6.9), averaged for 10 individuals
# Experimental: Since the recombinant Brazzein of the present disclosure is not a sugar-based compound, it is impossible to measure the sweetness by using a saccharometer. Therefore, the sweetness threshold is measured using human sensory evaluation. For most people, the sweetness threshold for sugar in soft drinks is 0.32%-1.0%. To assess the sweetness threshold for each solution, an 1% sucrose solution is used as the solution with minimum concentration at which sweetness is felt, i.e., the sweetness threshold is 10000 μg/mL The sweetness potency of the Brazzein described herein relative to sucrose is generally in a range of 1:500 to 1:16,000. The samples tested included naturally extracted Brazzein (homemade, about 95% pure), recombinant Brazzein and mutants thereof, sucrose and mineral water. The protein was diluted in a gradient from 0.5 to 20 μg/ml by diluting the dry protein powder with mineral water (pH 6.9). Ten healthy evaluators (five males and five females) aged between 30 and 50 participated in the assessment, five of whom were trained wine tasters. Tasting started at the lowest concentration, with concentration increased by 1 μg/ml each time until sweetness was felt; then based on this concentration, the concentration was reduced by 0.1 μg/ml at a time until sweetness was not felt; and the sweetness threshold of the sample was determined by gradually decreasing the concentration gradient in such a way. 20 ml of samples were tested randomly compared to sugar solutions. Before each analysis, the evaluator was asked to rinse his/her mouth with water and eat the neutral crackers until there was no residual taste. The test solution was held in oral cavity for at least 10 seconds. Thereafter, evaluators provided scores against samples on the basis of their responses between 0 and 10; 0—no sweet feeling, 10—highly sweet. The final results for each protein were averaged for 10 individuals. The sweetness factor of Brazzein and mutants thereof relative to 1% sucrose=10000/(sample sweetness threshold).
# [3] = tested on: sensory evaluation panel of 10 people; assay: Substituting of sucrose in yogurt beverage, sensory evaluation panel; assay type: in vivo, human; conditions: versus standard sample group with 4% sucrose; protein prepared by adding ROLpro
Sequence,sweetness preference score in white peach sugar-free sparkling water [1],Sweetness fold relative to 1% sucrose [2] [fold],increase in sweetness achieved by addition of the lipase leader peptide sequence ROLpro [2],Concentration (μg/mL) corresponding to threshold [2] [µg/mL],overall preference score in yogurt [3]
"DKCKKVYENYPVSKCQLANQCNYDCKLDKRARSGDCFYDRKRNLQCICDYCEY (disulfide 3-51, 15-36, 21-46, 25-48) [BXT-D7]",equivalent to that of the white peach sugar-free sparkling water available on the market,1265.8,about 13.2 fold,7.9 ± 1.5,comparable to that of the standard sample group
"DKCKKVYENYPVSKCQLANQCNYDCKLDKRARSGDCFYDKKRNLQCICDYCEY (disulfide 3-51, 15-36, 21-46, 25-48) [BXT-D6]",equivalent to that of the white peach sugar-free sparkling water available on the market,1149.4,about 14.5 fold,8.7 ± 1.6,comparable to that of the standard sample group
